Source: PubChem BioAssay AID248 (DTP/NCI, 2004)
The list does not hold the whole screen: it is rich in T/C values a quarter to a half above the control, in often repeated tests (any T/C) and in doses without a T/C. Other doses and runs of a compound stand elsewhere. T/C: endpoint of the treated group in % of that of the vehicle group. Some doses have a count of surviving animals in place of a T/C: the source holds a T/C of zero for them, seemingly a mark for toxic or unscored doses. Some survivor counts are full or nearly so, which does not show that the dose was tolerated: survival well below the control is almost never listed, so the zero probably covers shortened survival too. Survivors were counted at the toxicity check, usually on the fifth day, unless a day is given; later deaths do not show. Schedules are NCI's codes, taken here to give the interval after Q, in days (D) or hours (H), and the number of doses after X. Some schedule codes hold Z or #, which are not explained here. For survival time, this PubChem deposit counts one and a half times the control or more as active, and values a quarter to a half above the control carry no call in these data; other NCI protocols may use other cut-offs. Some T/C values are followed by the survivors on the day toxicity was checked, most often the fifth; without a count, all were alive then. Some entries hold several experiments; the values are given in rising order.

Tested on: L1210 leukemia ip in BDF1 mice, survival T/C
Experiment: NCI In Vivo Anticancer Drug Screen. Data for tumor model L1210 Leukemia (intraperitoneal) in B6D2F1 (BDF1) mice
Conditions: T/C endpoint: mean survival time, higher T/C = longer survival
[1] = dose: 100.0 mg/kg/injection, schedule: Q04DX003 (ip), vehicle: Klucel (hydroxypropylcellulose) (HPC)
[2] = dose: 200.0 mg/kg/injection, schedule: Q04DX003 (ip), vehicle: Klucel (hydroxypropylcellulose) (HPC)
[3] = dose: 400.0 mg/kg/injection, schedule: Q04DX003 (ip), vehicle: Klucel (hydroxypropylcellulose) (HPC)
[4] = dose: 50.0 mg/kg/injection, schedule: Q01DX009 (ip), vehicle: saline with Tween-80
[5] = dose: 100.0 mg/kg/injection, schedule: Q01DX009 (ip), vehicle: saline with Tween-80
[6] = dose: 200.0 mg/kg/injection, schedule: Q01DX009 (ip), vehicle: saline with Tween-80
[7] = dose: 400.0 mg/kg/injection, schedule: Q04DX003 (ip), vehicle: saline with Tween-80
[8] = dose: 400.0 mg/kg/injection, schedule: Q04DX003 (ip), vehicle: saline
[9] = dose: 200.0 mg/kg/injection, schedule: Q01DX009 (ip), vehicle: Klucel (hydroxypropylcellulose) (HPC)
[10] = dose: 400.0 mg/kg/injection, schedule: Q01DX009 (ip), vehicle: Klucel (hydroxypropylcellulose) (HPC)
[11] = dose: 400.0 mg/kg/injection, schedule: Q01DX001 (ip), vehicle: saline
[12] = dose: 900.0 mg/kg/injection, schedule: Q01DX Z (ip), vehicle: other
[13] = dose: 1200.0 mg/kg/injection, schedule: Q01DX Z (ip), vehicle: other

CC(O)CSc1ccccc1 (stereo not drawn)
survivor count (dose: 400.0 mg/kg/injection, schedule: Q01DX009 (ip), vehicle: saline with Tween-80): 1 of 6

O=[N+]([O-])c1ccc(C=C2C=c3ccccc3=C2)cc1
survivor count [1]: 6 of 6 | survivor count [2]: 6 of 6 | survivor count [3]: 6 of 6

[Cu+2].[NH-]C(CS)C(=O)O.[NH-]C(CS)C(=O)O (stereo not drawn)
survivor count (dose: 12.5 mg/kg/injection, schedule: Q04DX002 (ip), vehicle: saline with Tween-80): 3 of 3 | survivor count (dose: 100.0 mg/kg/injection, schedule: Q04DX002 (ip), vehicle: saline with Tween-80): 0 of 3 | survivor count (dose: 200.0 mg/kg/injection, schedule: Q04DX002 (ip), vehicle: saline with Tween-80): 1 of 3 | survivor count (dose: 400.0 mg/kg/injection, schedule: Q04DX002 (ip), vehicle: saline with Tween-80): 0 of 3

CC(C)CC(C=NCC(CCN(C)C)(CC(C)C)c1cccc2ccccc12)(CCN(C)C)c1cccc2ccccc12 (stereo not drawn)
survivor count (dose: 50.0 mg/kg/injection, schedule: Q01DX009 (ip), vehicle: Klucel (hydroxypropylcellulose) (HPC)): 0 of 6 | survivor count [1]: 3 of 6 | survivor count [2]: 0 of 6 | survivor count [3]: 0 of 6

COC1CCCC[CH]1[Hg][Br] (stereo not drawn)
survivor count (dose: 25.0 mg/kg/injection, schedule: Q01DX009 (ip), vehicle: saline with Tween-80): 0 of 3 | survivor count [4]: 0 of 3 | survivor count [5]: 0 of 3 | survivor count [6]: 0 of 3

O=c1[nH]cc(Br)c2sccc12
survivor count [7]: 6 of 6

CC(=O)NCC[N+](C)(C)C
survivor count (dose: 200.0 mg/kg/injection, schedule: Q04DX003 (ip), vehicle: saline): 6 of 6 | survivor count [8]: 0 of 6

COC(C)CSP(SCC(C)OC)SCC(C)OC (stereo not drawn)
survivor count (dose: 100.0 mg/kg/injection, schedule: Q01DX009 (ip), vehicle: Klucel (hydroxypropylcellulose) (HPC)): 4 of 6 | survivor count [9]: 1 of 6 | survivor count [10]: 0 of 6

Cc1nc(-c2ccc(N=Cc3ccc(N(CCOS(C)(=O)=O)CCOS(C)(=O)=O)cc3)cc2)c(C)s1
T/C (dose: 20.0 mg/kg/injection, schedule: Q04DX003 (ip), vehicle: Klucel (hydroxypropylcellulose) (HPC)): 145 % of control | survivor count [2]: 3 of 6 | survivor count [3]: 0 of 6

O=C1OC(=O)C2C1C13CCCC1=C1CCC34C(=O)OC(=O)C43CC123 (stereo not drawn)
survivor count (dose: 25.0 mg/kg/injection, schedule: Q01DX009 (ip), vehicle: saline): 3 of 6 | survivor count (dose: 50.0 mg/kg/injection, schedule: Q04DX003 (ip), vehicle: saline): 0 of 6 | survivor count (dose: 100.0 mg/kg/injection, schedule: Q01DX001 (ip), vehicle: saline): 2 of 6 | survivor count (dose: 200.0 mg/kg/injection, schedule: Q01DX001 (ip), vehicle: saline): 1 of 6 | survivor count [11]: 0 of 6

O=c1[nH]c(=O)n(C2CC(O)C(CO)O2)cc1I (stereo not drawn)
T/C (dose: 125.0 mg/kg/injection, schedule: Q#A X Z (ip), vehicle: other): 131 % of control | T/C (dose: 250.0 mg/kg/injection, schedule: Q#A X Z (ip), vehicle: other): 133 % of control | T/C (dose: 300.0 mg/kg/injection, schedule: Q01DX009 (ip), vehicle: carboxymethylcellulose (CMC)): 135 % of control [8 of 10 alive] | T/C (dose: 300.0 mg/kg/injection, schedule: Q## X003 (ip), vehicle: carboxymethylcellulose (CMC)): 141 % of control | T/C (dose: 400.0 mg/kg/injection, schedule: Q01DX Z (ip), vehicle: other): 126 % of control | T/C (dose: 400.0 mg/kg/injection, schedule: Q01DX Z (ip), vehicle: saline): 127 % of control | T/C (dose: 600.0 mg/kg/injection, schedule: Q01DX009 (ip), vehicle: saline): 131 % of control | T/C (dose: 600.0 mg/kg/injection, schedule: Q01DX Z (ip), vehicle: other): 139 and 145 % of control | T/C (dose: 600.0 mg/kg/injection, schedule: Q01DX Z (ip), vehicle: saline): 136 and 137 % of control [6 of 7 alive] | T/C [12]: 141 % of control | survivor count [12]: 0 of 6 | T/C (dose: 1000.0 mg/kg/injection, schedule: Q01DX010 (ip), vehicle: saline): 126 % of control | T/C (dose: 1000.0 mg/kg/injection, schedule: Q01DX Z (ip), vehicle: other): 127 % of control | survivor count (dose: 1200.0 mg/kg/injection, schedule: Q01DX005 (ip), vehicle: carboxymethylcellulose (CMC)): 8 of 10 | survivor count (dose: 1200.0 mg/kg/injection, schedule: Q01DX009 (ip), vehicle: carboxymethylcellulose (CMC)): 9 of 10 | T/C (dose: 1200.0 mg/kg/injection, schedule: Q01DX009 (ip), vehicle: saline): 137 % of control | T/C [13]: 130 % of control | survivor count [13]: 0 of 6 | survivor count (dose: 1800.0 mg/kg/injection, schedule: Q01DX Z (ip), vehicle: other): 0 of 6 | T/C (dose: 2000.0 mg/kg/injection, schedule: Q01DX Z (ip), vehicle: other): 143 % of control | survivor count (dose: 2400.0 mg/kg/injection, schedule: Q01DX005 (ip), vehicle: carboxymethylcellulose (CMC)): 5 of 10 | T/C (dose: 2400.0 mg/kg/injection, schedule: Q## X024 (ip), vehicle: carboxymethylcellulose (CMC)): 134 % of control [9 of 10 alive] | survivor count (dose: 2500.0 mg/kg/injection, schedule: Q01DX Z (ip), vehicle: other): 0 of 6

CC(=O)N/N=C/C=C/c1ccccc1
survivor count (dose: 12.5 mg/kg/injection, schedule: Q01DX009 (ip), vehicle: saline with Tween-80): 3 of 3 | survivor count [4]: 1 of 3 | survivor count [5]: 0 of 3 | survivor count [6]: 0 of 3

CCNC1(c2ccc(Cl)cc2)CCCCC1=O (stereo not drawn)
survivor count (dose: 200.0 mg/kg/injection, schedule: Q01DX009 (ip), vehicle: saline): 1 of 6 | survivor count [8]: 1 of 6

O=[N+]([O-])c1ccc(S(=O)[O-])cc1.O=[N+]([O-])c1ccc(S(=O)[O-])cc1.[Zn+2]
survivor count (dose: 300.0 mg/kg/injection, schedule: Q01DX001 (ip), vehicle: saline): 0 of 6

C[N+](C)(C)CSSC[N+](C)(C)C
survivor count (dose: 100.0 mg/kg/injection, schedule: Q04DX003 (ip), vehicle: saline with Tween-80): 4 of 6 | survivor count (dose: 200.0 mg/kg/injection, schedule: Q04DX003 (ip), vehicle: saline with Tween-80): 0 of 6 | survivor count [7]: 0 of 6

O=C(N/N=C/C(CC(O)C(O)CO)=N/NC(=O)c1ccc(Cl)cc1)c1ccc(Cl)cc1 (stereo not drawn)
survivor count [10]: 3 of 6

CN1CN(c2ccccc2)C2(CCN(CCCCCCCF)CC2)C1=O
survivor count (dose: 75.0 mg/kg/injection, schedule: Q04DX003 (ip), vehicle: Klucel (hydroxypropylcellulose) (HPC)): 0 of 6 | survivor count (dose: 150.0 mg/kg/injection, schedule: Q04DX003 (ip), vehicle: Klucel (hydroxypropylcellulose) (HPC)): 0 of 6 | survivor count (dose: 300.0 mg/kg/injection, schedule: Q04DX003 (ip), vehicle: Klucel (hydroxypropylcellulose) (HPC)): 0 of 6

CCCCN(CCCC)c1ccc(/C=C/c2ccnc3ccccc23)cc1
survivor count (dose: 400.0 mg/kg/injection, schedule: Q01DX001 (ip), vehicle: carboxymethylcellulose (CMC)): 6 of 6

CCc1ccc(CCSCCc2ccc(CC)c[n+]2[O-])[n+]([O-])c1
survivor count [11]: 1 of 6

COC(=O)c1ccccc1N=NNc1cccc(SC)c1
survivor count [7]: 5 of 6

CC(=O)Nc1cccc([As](=O)(c2cccc(NC(C)=O)c2)c2cccc(NC(C)=O)c2)c1
survivor count (dose: 83.0 mg/kg/injection, schedule: Q01DX Z (ip), vehicle: methylcellulose (MC)): 6 of 6

CC(C)(C)OC(=O)NC(CC(=O)OCc1ccccc1)C(=O)O (stereo not drawn)
survivor count [9]: 6 of 6 | survivor count [10]: 6 of 6
